## Screening data, single-dose tests

Protein sequences, listed by entry. Tags and fused reporters are not part of them. Residues count along the entry.
UniProt P9WNZ1, whole entry: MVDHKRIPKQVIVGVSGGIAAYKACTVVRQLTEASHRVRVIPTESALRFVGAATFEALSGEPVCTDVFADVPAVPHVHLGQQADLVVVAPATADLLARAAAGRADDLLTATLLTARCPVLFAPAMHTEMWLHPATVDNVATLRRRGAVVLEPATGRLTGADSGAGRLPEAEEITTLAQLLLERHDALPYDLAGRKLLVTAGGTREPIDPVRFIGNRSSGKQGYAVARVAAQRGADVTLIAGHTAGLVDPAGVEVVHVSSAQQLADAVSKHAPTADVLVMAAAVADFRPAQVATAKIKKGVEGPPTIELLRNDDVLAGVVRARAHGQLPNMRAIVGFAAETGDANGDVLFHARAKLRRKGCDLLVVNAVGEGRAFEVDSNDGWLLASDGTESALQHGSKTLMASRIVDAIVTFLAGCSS
UniProt Q4DA54, 1-478: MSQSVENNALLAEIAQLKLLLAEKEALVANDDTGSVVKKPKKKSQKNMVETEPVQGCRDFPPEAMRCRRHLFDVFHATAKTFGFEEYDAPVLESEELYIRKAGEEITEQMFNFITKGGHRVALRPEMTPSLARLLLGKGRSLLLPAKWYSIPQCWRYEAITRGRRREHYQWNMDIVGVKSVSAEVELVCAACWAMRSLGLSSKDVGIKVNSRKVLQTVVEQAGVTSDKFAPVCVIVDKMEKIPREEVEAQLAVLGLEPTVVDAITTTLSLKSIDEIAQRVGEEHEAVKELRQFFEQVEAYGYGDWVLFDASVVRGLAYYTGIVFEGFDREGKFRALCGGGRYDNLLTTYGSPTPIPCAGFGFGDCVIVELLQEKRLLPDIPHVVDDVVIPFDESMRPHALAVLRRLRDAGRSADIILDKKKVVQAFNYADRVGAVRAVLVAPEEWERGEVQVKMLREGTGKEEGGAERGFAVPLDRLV

CoaBC: 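Enzyme assay of CoaBC with a phosphate dye (Biomol Green) read at 650 nm. Target: Coenzyme A biosynthesis protein CoaBC, Mycobacterium tuberculosis (UniProt P9WNZ1). Compounds at 30 µM. Higher reads as stronger inhibition, judged from the few compounds that gave an IC50. Most strong results did not repeat in a second test. Of about 67,000 compounds tested this way, about 40 (0.06%) reached 50% or more in at least one test.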
TcHisRS: 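Histidine-tRNA ligase, Trypanosoma cruzi CL Brener (UniProt Q4DA54). Enzyme assay of histidyl-tRNA synthetase; the read-out is not stated. Tested at 30 µM. Higher reads as stronger inhibition (inferred: compounds with an IC50 in retests scored well above the rest). Of about 69,000 compounds tested this way, about 31 (0.045%) reached 50% or more in at least one test.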

Each number is a percent effect as filed.
The record does not define 0% and 100%; most values in the screen are far below 50% and negative numbers occur (in some assays of this library far below -100).
The compounds are a random part of those screened.

SMILES,CoaBC,TcHisRS
CCN1CCOC(CNCc2c(Cl)nc3ccccn23)C1 (configuration not stated),1.908,9.135
CC(O)CN(C(=O)NC1CC1)C(C)C (configuration not stated),0.2604,0.5181
Cc1ccccc1C1(C(=O)NCCN(C)C)CCOCC1,1.842,3.812
CCc1ccc(C(=O)N2CCC(c3nncn3CC)CC2)cc1,9.312,-3.261
COCCCNC(=O)CN(C)C(=O)c1cc(C)ccc1N(C)C(C)C,7.42,0.3831
Cc1nc(CN(C)Cc2cc3c(cc2OC(F)F)OCO3)oc1C,-2.799,6.024
COc1cccc(CN2CCC3(CCN(C(=O)[C@H]4CCCO4)CC3)C2)c1,5.32,1.504
Cc1nn(CC(=O)NCCc2ccncc2)c(=O)n1Cc1ccccc1,-2.664,4.255
Cc1cccc(N2CCC(NCc3cnc(C4CCC4)s3)CC2)n1,-5.423,2.941
O=C(C1CC1)N1CCN(C(=O)C2CC(=O)N(c3ccccc3Br)C2)CC1 (configuration not stated),-2.871,2.041
CCC(=O)Nc1ccc(F)c(S(=O)(=O)NC(C)(C)C)c1,-2.016,6.145
CNC(=O)N1CC[C@@H]2CN(Cc3ccccc3)S(=O)(=O)[C@@H]2CC1,1.481,-1.058
Clc1cccc(N[C@H]2CCCN[C@H]2Cc2ccccc2)c1,5.938,6.154
CCc1nc(CN(C(C)=O)C2CCN(Cc3csc(C)n3)C2)no1 (configuration not stated),4.462,4.571
Cc1ccc(S(=O)(=O)NC[C@H]2OC[C@@H](NCc3ccccc3)[C@@H]2O)cc1,14.79,1.087
Nc1nccc(NCc2cc3n(n2)CCCN(C2CCCCC2)C3)n1,-32.04,-1.653
Cc1cccc2[nH]c(C3CCN(C(=O)c4cnc(O)cc4O)CC3)nc12,-0.1206,-3.518
CN(C)S(=O)(=O)N1CCC(OCCCc2ccccc2)C1 (configuration not stated),-2.764,3.922
CC(NCC1(N(C)C)CCOCC1)c1ccc(Cl)cc1 (configuration not stated),0.2237,1.031
CCS(=O)(=O)N1CC[C@H](OC)[C@H]2CN(Cc3ccncc3)C[C@H]21,5.833,6.952
CS(=O)(=O)N1CCC(O)(Cn2c(C3CC3)nc3ccccc3c2=O)CC1,2.5,2.703
COc1ccc(OCCC(=O)N2CCCC2Cn2cccn2)cc1 (configuration not stated),6.789,4.373
O=C(NCc1cccnc1N1CCCC(O)C1)c1ccc2[nH]nnc2c1 (configuration not stated),2.133,10.45
N#Cc1c(N2CCOCC2)nsc1-c1cccnc1,0.4673,3.097
CCc1nccn1C1CCCN(C(=O)Cc2n[nH]c3ccccc23)C1 (configuration not stated),9.399,1.88
COCCC(=O)N1CCC2(COCc3c(C)nc(NCC4CC4)nc32)C1 (configuration not stated),-2.332,8.197
CN1CCN(C(=O)c2ncn3c2CNS(=O)(=O)c2ccccc2-3)CC1,-7.083,4.813
O=C(c1ccc(NCc2ccco2)nc1)N1CCc2ccccc21,10.45,9.189
c1cn(CC2CC2)c(C2CCN(CCC3CCOC3)CC2)n1 (configuration not stated),4.177,-3.704
Cc1ccc(N2CCCC(NCc3cnc(C)s3)C2)nn1 (configuration not stated),6.087,8.883
CN1CCC(NC(=O)Nc2cnn(-c3ccccc3Cl)c2)C1=O (configuration not stated),3.121,2.632
NS(=O)(=O)c1ccc(NCc2ccco2)c2ncccc12,1.392,6.878
Cc1ccc(C(=O)NCCSCc2cccs2)cn1,3.611,3.207
O=C(c1cn(-c2ccccc2C(F)(F)F)nn1)N1CCSCC1,2.036,3.614
CC(C)OCCCNC(=O)CS(=O)(=O)Cc1ccc(Cl)c(Cl)c1,1.446,1.527
CC(=O)c1cn(CC(=O)NC(C(=O)O)C(C)C)c2ccccc12 (configuration not stated),2.679,6.224
Cc1ccsc1C(=O)N1CC2CC1(C(=O)NCc1ccco1)C2,-0.5089,7.767
Cc1cccc(CN(Cc2nc3c(cnn3C)c(=O)[nH]2)C2CC2)c1,-0.3911,4.046
COCCCNC(=O)c1ccccc1S(C)(=O)=O,1.186,0
Cc1ccc2c(c1)C(NC(=O)N(C)C)CC21CCN(C)CC1 (configuration not stated),-5.795,3.81
COCCN1C[C@@H](C)[C@@]2(COCCN(C(=O)c3ccno3)C2)C1,-2.258,7.463
CC(C)(C)c1nnc(CN2CCCC2c2noc(C3CC3)n2)o1 (configuration not stated),4.047,-1.149
O=C(c1cncs1)N1CCC(c2cnccn2)CC1,0.2451,-15.96
Cc1cccc(CC(=O)NC2CCN(C(=O)NC(C)(C)C)CC2)c1,-5.806,4.433
Cc1cc(C)c(C(=O)N2CCc3c(ncn3CCc3ccccc3)C2)[nH]1,3.306,2.89
Cc1ncncc1C(=O)NCCN1CCC(C)CC1,-7.922,3.509
O=C(c1cscn1)N1CCC2(CCN(Cc3nccs3)CC2)CC1,2.843,7.143
CNC(=O)c1ccc(C(=O)N2CCCC2c2cnn(C)c2)cn1 (configuration not stated),-0.1669,3.03
CC1CN(C(=O)c2ccn(-c3cccc(Cl)c3)n2)CCO1 (configuration not stated),0.7229,-3.053
O=S(=O)(Cc1ccccc1F)NC(CO)c1ccco1 (configuration not stated),11.2,0
O=C(C1CC1)N1CCc2nc(C3CCN(C(=O)C4CC4)C3)nc(O)c2C1 (configuration not stated),3.431,3.191
CC[C@@H]1N(Cc2ccsc2)CCC[C@]12CCC(=O)N2C,-2.418,3.759
CC(C)CN1CC(c2nc(CCc3ccccc3)n[nH]2)CC1=O (configuration not stated),5.398,2.235
c1cncc(OCC2CN(Cc3ccsc3)Cc3nccn3C2)c1 (configuration not stated),-13.18,9.244
Cc1cc(N2CCN(Cc3nccn3C)CC2)cc(C)n1,-6.329,7.317
Cc1ccc(C(=O)NCC(C)CN2CCCC2=O)c(=O)[nH]1 (configuration not stated),3.457,5.521
CC(C)COc1cncc(N(C)C2CCN(c3ncccn3)CC2)n1,8.679,3.571
Cc1ccc(S(=O)(=O)N2CCCC3(CCCN3S(C)(=O)=O)C2)cc1F (configuration not stated),5.679,8.411
CS(=O)(=O)N1CC[C@]2(C[C@H](Oc3ccccn3)CO2)C1,8.932,4.372
Cc1ccc(N2CCCC(NCc3ccc(Cl)o3)C2)nn1 (configuration not stated),7.775,5.413
c1ncc2c(n1)CN(Cc1cn3ccsc3n1)CC2,-2.801,7.738
Cc1nc(NC2CCCCC2)cc(C2CCCNC2)n1 (configuration not stated),-5.919,1.515
CC(C)CN1CCC(C(=O)NCCNC(=O)c2ccoc2)CC1,1.613,5.419
CN(CCc1cccs1)CCc1nccs1,8.151,2.646
CC(CN1CCOCC1)OC(=O)c1cccc2cn[nH]c12 (configuration not stated),-0.3165,8.374

5 of the entries, repeated:

Result for CCc1ccc(C(=O)N2CCC(c3nncn3CC)CC2)cc1 was CoaBC: 9.312%; TcHisRS: -3.261%.
Result for O=S(=O)(Cc1ccccc1F)NC(CO)c1ccco1 (configuration not stated) was CoaBC: 11.2%; TcHisRS: 0%.
Result for CN1CCC(NC(=O)Nc2cnn(-c3ccccc3Cl)c2)C1=O (configuration not stated) was CoaBC: 3.121%; TcHisRS: 2.632%.
Result for CCc1nccn1C1CCCN(C(=O)Cc2n[nH]c3ccccc23)C1 (configuration not stated) was CoaBC: 9.399%; TcHisRS: 1.88%.
Result for CC(NCC1(N(C)C)CCOCC1)c1ccc(Cl)cc1 (configuration not stated) was CoaBC: 0.2237%; TcHisRS: 1.031%.

Source: ChEMBL document CHEMBL3988442, “University of Dundee, Small-Polar-MMV Screening Library” (2021).